PubChem BioAssay AID1224828 | NIAID – 2016
This is one part, drawn at random, of about 17,000 reagents tested. 762 of all reagents (4.5%) were called active. 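Active calls include both raised and lowered p65 entry, mostly lowered; wells with fewer than 50 cells lack a z-score.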 Raw values are not corrected between plates. No sequences are given here.

- Assay: 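Regulators linking TLR4 signalling to p65 nuclear translocation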 (primary screen)
- Cells: mouse RAW264.7 G9 macrophage reporter cells (GFP-p65, Tnf promoter-mCherry)
- Reagents: siRNA pool against mouse genes, 100 nM
- Duration: 2 days siRNA transfection, then 40 min LPS before fixation
- Challenge: LPS (Salmonella minnesota R595) at 10 ng/ml
- Read-out: 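Imaged p65 nuclear translocation ratio, normalised to the plate median, converted to robust z-scores and averaged across two replicates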
- Scale: p65 translocation robust z-score: higher = more nuclear NF-kappaB p65 after LPS than the plate median; nuclear/cytoplasmic p65 ratio: higher = more nuclear NF-kappaB p65
- Active means: 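Active if robust z is above 3.3 (negative regulators) or below -1.56, the Tlr4 control median (positive regulators); activity score 50 or more; control wells not called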
- Calls: active = hit (p65 shift raised or lowered); inactive = no clear change

Bahcc1 | p65 translocation robust z-score = -0.66; nuclear/cytoplasmic p65 ratio, rep 1 = 1.34; nuclear/cytoplasmic p65 ratio, rep 2 = 1.3; low cell count flag = enough cells to score; call = inactive
Cybb | p65 translocation robust z-score = -0.38; nuclear/cytoplasmic p65 ratio, rep 1 = 1.43; nuclear/cytoplasmic p65 ratio, rep 2 = 1.33; low cell count flag = enough cells to score; call = inactive
Aprt | p65 translocation robust z-score = -0.4; nuclear/cytoplasmic p65 ratio, rep 1 = 1.56; nuclear/cytoplasmic p65 ratio, rep 2 = 1.56; low cell count flag = enough cells to score; call = inactive
Or1ab2 | p65 translocation robust z-score = 0.47; nuclear/cytoplasmic p65 ratio, rep 1 = 1.68; nuclear/cytoplasmic p65 ratio, rep 2 = 1.33; low cell count flag = enough cells to score; call = inactive
Vmac | p65 translocation robust z-score = 0.34; nuclear/cytoplasmic p65 ratio, rep 1 = 1.58; nuclear/cytoplasmic p65 ratio, rep 2 = 1.82; low cell count flag = enough cells to score; call = inactive

2 entries from above in another layout:
| gene symbol | p65 translocation robust z-score | nuclear/cytoplasmic p65 ratio, rep 1 | nuclear/cytoplasmic p65 ratio, rep 2 | low cell count flag | call |
| --- | --- | --- | --- | --- | --- |
| Bahcc1 | -0.66 | 1.34 | 1.3 | enough cells to score | inactive |
| Cybb | -0.38 | 1.43 | 1.33 | enough cells to score | inactive |

The results go on.
Cs | p65 translocation robust z-score = -0.21; nuclear/cytoplasmic p65 ratio, rep 1 = 1.42; nuclear/cytoplasmic p65 ratio, rep 2 = 1.89; low cell count flag = enough cells to score; call = inactive
P2ry12 | p65 translocation robust z-score = -1.54; nuclear/cytoplasmic p65 ratio, rep 1 = 1.29; nuclear/cytoplasmic p65 ratio, rep 2 = 1.23; low cell count flag = enough cells to score; call = inactive
Pkia | nuclear/cytoplasmic p65 ratio, rep 1 = 1.89; nuclear/cytoplasmic p65 ratio, rep 2 = 1.23; low cell count flag = fewer than 50 cells per well; well left out of scoring; call = inactive
Or2a56 | nuclear/cytoplasmic p65 ratio, rep 1 = 1.37; nuclear/cytoplasmic p65 ratio, rep 2 = 1.04; low cell count flag = fewer than 50 cells per well; well left out of scoring; call = inactive
Itgb1 | p65 translocation robust z-score = -0.32; nuclear/cytoplasmic p65 ratio, rep 1 = 1.47; nuclear/cytoplasmic p65 ratio, rep 2 = 1.31; low cell count flag = enough cells to score; call = inactive
Usp42 | p65 translocation robust z-score = 0.79; nuclear/cytoplasmic p65 ratio, rep 1 = 1.79; nuclear/cytoplasmic p65 ratio, rep 2 = 1.67; low cell count flag = enough cells to score; call = inactive
Bcl2a1b | p65 translocation robust z-score = -0.16; nuclear/cytoplasmic p65 ratio, rep 1 = 1.61; nuclear/cytoplasmic p65 ratio, rep 2 = 1.57; low cell count flag = enough cells to score; call = inactive
Klrb1a | p65 translocation robust z-score = 2.96; nuclear/cytoplasmic p65 ratio, rep 1 = 2.02; nuclear/cytoplasmic p65 ratio, rep 2 = 1.78; low cell count flag = enough cells to score; call = inactive
Svil | p65 translocation robust z-score = -0.06; nuclear/cytoplasmic p65 ratio, rep 1 = 1.55; nuclear/cytoplasmic p65 ratio, rep 2 = 1.53; low cell count flag = enough cells to score; call = inactive
